Laboratory results taken from paper PMC3908380.
These are yes or no findings as the source states them, for the method shown. In cells and extracts the contact can be indirect. A yes stands for co-enrichment or nearness to the bait. Other partners may have been found.

Amino acid sequences for entries named in this document (tags omitted).
UniProt P92177: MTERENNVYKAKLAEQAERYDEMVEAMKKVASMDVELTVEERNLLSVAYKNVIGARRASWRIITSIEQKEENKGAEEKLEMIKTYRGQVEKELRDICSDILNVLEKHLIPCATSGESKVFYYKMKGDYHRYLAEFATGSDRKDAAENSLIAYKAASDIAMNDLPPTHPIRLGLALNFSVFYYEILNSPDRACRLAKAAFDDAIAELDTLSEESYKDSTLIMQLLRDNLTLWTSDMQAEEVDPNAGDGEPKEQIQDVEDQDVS

T1: Pi3K92E (Drosophila Melanogaster) (UniProt P91634)
T1 sequence: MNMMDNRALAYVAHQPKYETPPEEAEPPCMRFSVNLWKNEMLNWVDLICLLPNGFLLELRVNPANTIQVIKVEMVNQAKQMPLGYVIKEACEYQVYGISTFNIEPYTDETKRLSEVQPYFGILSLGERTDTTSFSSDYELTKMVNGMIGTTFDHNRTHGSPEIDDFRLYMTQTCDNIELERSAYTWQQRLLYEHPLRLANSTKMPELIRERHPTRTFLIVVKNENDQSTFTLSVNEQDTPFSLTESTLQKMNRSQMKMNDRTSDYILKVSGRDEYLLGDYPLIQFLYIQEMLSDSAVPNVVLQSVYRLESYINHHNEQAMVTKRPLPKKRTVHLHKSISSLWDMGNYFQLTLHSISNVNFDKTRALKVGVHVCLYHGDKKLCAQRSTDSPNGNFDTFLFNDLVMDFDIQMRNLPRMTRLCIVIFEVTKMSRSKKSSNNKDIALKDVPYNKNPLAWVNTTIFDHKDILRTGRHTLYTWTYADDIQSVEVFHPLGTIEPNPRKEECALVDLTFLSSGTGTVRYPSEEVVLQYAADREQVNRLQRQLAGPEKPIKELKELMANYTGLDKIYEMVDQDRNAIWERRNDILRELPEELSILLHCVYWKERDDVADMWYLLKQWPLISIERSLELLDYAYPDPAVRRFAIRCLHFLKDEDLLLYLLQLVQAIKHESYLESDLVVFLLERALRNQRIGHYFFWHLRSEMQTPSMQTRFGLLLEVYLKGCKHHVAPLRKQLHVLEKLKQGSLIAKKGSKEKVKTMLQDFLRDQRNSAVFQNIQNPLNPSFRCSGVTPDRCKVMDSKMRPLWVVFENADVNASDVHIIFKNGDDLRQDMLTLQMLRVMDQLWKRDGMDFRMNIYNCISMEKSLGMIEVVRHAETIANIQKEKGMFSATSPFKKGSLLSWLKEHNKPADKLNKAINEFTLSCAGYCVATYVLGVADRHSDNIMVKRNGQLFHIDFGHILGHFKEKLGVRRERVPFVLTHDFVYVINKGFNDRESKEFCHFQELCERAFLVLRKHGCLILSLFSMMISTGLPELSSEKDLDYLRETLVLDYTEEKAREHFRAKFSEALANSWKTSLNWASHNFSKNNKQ

T2: chico (Drosophila Melanogaster) (UniProt Q9XTN2)
T2 sequence: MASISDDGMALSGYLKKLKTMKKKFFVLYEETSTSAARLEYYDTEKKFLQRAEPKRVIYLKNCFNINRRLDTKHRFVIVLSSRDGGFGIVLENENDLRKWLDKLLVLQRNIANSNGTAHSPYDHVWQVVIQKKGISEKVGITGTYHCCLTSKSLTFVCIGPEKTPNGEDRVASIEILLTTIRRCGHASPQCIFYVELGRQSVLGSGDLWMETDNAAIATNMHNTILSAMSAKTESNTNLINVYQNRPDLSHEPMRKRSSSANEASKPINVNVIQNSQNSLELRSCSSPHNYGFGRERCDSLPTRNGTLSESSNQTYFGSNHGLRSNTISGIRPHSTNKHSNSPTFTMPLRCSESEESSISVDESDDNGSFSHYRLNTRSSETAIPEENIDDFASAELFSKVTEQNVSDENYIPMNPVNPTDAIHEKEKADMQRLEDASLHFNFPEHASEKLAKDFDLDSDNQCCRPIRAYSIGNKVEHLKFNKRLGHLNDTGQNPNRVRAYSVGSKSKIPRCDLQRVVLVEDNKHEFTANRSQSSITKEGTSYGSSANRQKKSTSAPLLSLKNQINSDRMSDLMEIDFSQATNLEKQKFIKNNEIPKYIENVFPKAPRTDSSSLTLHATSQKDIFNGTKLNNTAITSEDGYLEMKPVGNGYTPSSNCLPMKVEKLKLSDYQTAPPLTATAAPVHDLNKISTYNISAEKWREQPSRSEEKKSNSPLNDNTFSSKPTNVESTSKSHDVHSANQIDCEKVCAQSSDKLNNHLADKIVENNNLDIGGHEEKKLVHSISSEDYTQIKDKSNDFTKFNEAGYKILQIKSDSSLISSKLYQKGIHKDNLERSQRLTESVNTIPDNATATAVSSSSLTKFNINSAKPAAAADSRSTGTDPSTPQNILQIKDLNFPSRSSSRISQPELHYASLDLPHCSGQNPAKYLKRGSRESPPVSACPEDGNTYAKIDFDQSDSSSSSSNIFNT

T3: Thor (Drosophila Melanogaster) (UniProt Q9XZ56)
T3 sequence: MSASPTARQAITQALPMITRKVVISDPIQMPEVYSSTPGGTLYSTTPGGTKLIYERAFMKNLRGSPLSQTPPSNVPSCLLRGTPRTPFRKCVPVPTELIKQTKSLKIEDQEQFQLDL


Legend:
Test in all cases: affinity purification with mass spectrometry; TAP/MS of the Drosophila Insulin pathway dataset: TAP-tagged bait pulled down via its tag from cell lysates, peptides identified by MS, spectral counts in replicates; time points 0, 10 and 30 minutes; negative control purifications; bait-prey pairs scored as significant by PPIRank (and SAINT)
[1] = target: T1, Pi3K92E (Drosophila Melanogaster)
[2] = target: T2, chico (Drosophila Melanogaster)
[3] = target: Pi3K21B (Drosophila Melanogaster)
[4] = target: T3, Thor (Drosophila Melanogaster)

binding [2] | Molecule | further results
binds | Pi3K21B (Drosophila Melanogaster) | binding [1]: binds
binds | 14-3-3epsilon (from UniProt P92177 1-262) | –
– | Pi3K92E (enzyme, UniProt P91634 1-1088) MNMMDNRALAYVAHQPKYETPPEEAEPPCMRFSVNLWKNEMLNWVDLICLLPNGFLLELRVNPANTIQVIKVEMVNQAKQMPLGYVIKEACEYQVYGISTFNIEPYTDETKRLSEVQPYFGILSLGERTDTTSFSSDYELTKMVNGMIGTTFDHNRTHGSPEIDDFRLYMTQTCDNIELERSAYTWQQRLLYEHPLRLANSTKMPELIRERHPTRTFLIVVKNENDQSTFTLSVNEQDTPFSLTESTLQKMNRSQMKMNDRTSDYILKVSGRDEYLLGDYPLIQFLYIQEMLSDSAVPNVVLQSVYRLESYINHHNEQAMVTKRPLPKKRTVHLHKSISSLWDMGNYFQLTLHSISNVNFDKTRALKVGVHVCLYHGDKKLCAQRSTDSPNGNFDTFLFNDLVMDFDIQMRNLPRMTRLCIVIFEVTKMSRSKKSSNNKDIALKDVPYNKNPLAWVNTTIFDHKDILRTGRHTLYTWTYADDIQSVEVFHPLGTIEPNPRKEECALVDLTFLSSGTGTVRYPSEEVVLQYAADREQVNRLQRQLAGPEKPIKELKELMANYTGLDKIYEMVDQDRNAIWERRNDILRELPEELSILLHCVYWKERDDVADMWYLLKQWPLISIERSLELLDYAYPDPAVRRFAIRCLHFLKDEDLLLYLLQLVQAIKHESYLESDLVVFLLERALRNQRIGHYFFWHLRSEMQTPSMQTRFGLLLEVYLKGCKHHVAPLRKQLHVLEKLKQGSLIAKKGSKEKVKTMLQDFLRDQRNSAVFQNIQNPLNPSFRCSGVTPDRCKVMDSKMRPLWVVFENADVNASDVHIIFKNGDDLRQDMLTLQMLRVMDQLWKRDGMDFRMNIYNCISMEKSLGMIEVVRHAETIANIQKEKGMFSATSPFKKGSLLSWLKEHNKPADKLNKAINEFTLSCAGYCVATYVLGVADRHSDNIMVKRNGQLFHIDFGHILGHFKEKLGVRRERVPFVLTHDFVYVINKGFNDRESKEFCHFQELCERAFLVLRKHGCLILSLFSMMISTGLPELSSEKDLDYLRETLVLDYTEEKAREHFRAKFSEALANSWKTSLNWASHNFSKNNKQ | binding [3]: binds
binds | 14-3-3zeta (protein, UniProt P29310 1-248) MSTVDKEELVQKAKLAEQSERYDDMAQAMKSVTETGVELSNEERNLLSVAYKNVVGARRSSWRVISSIEQKTEASARKQQLAREYRERVEKELREICYEVLGLLDKYLIPKASNPESKVFYLKMKGDYYRYLAEVATGDARNTVVDDSQTAYQDAFDISKGKMQPTHPIRLGLALNFSVFYYEILNSPDKACQLAKQAFDDAIAELDTLNEDSYKDSTLIMQLLRDNLTLWTSDTQGDEAEPQEGGDN | –
– | eIF-4E (protein, UniProt P48598 1-259) MQSDFHRMKNFANPKSMFKTSAPSTEQGRPEPPTSAAAPAEAKDVKPKEDPQETGEPAGNTATTTAPAGDDAVRTEHLYKHPLMNVWTLWYLENDRSKSWEDMQNEITSFDTVEDFWSLYNHIKPPSEIKLGSDYSLFKKNIRPMWEDAANKQGGRWVITLNKSSKTDLDNLWLDVLLCLIGEAFDHSDQICGAVINIRGKSNKISIWTADGNNEEAALEIGHKLRDALRLGRNNSLQYQLHKDTMVKQGSNVKSIYTL | binding [4]: binds
binds | InR (receptor, UniProt P09208 1086-2144) DVALEPELDDVEGSVLLRHVRSITDDTDAFFEKDDENTYKDEEDLSSNKQFYEVFAKELPPNQTHFVFEKLRHFTRYAIFVVACREEIPSEKLRDTSFKKSLCSDYDTVFQTTKRKKFADIVMDLKVDLEHANNTESPVRVRWTPPVDPNGEIVTYEVAYKLQKPDQVEEKKCIPAADFNQTAGYLIKLNEGLYSFRVRANSIAGYGDFTEVEHIKVEPPPSYAKVFFWLLGIGLAFLIVSLFGYVCYLHKRKVPSNDLHMNTEVNPFYASMQYIPDDWEVLRENIIQLAPLGQGSFGMVYEGILKSFPPNGVDRECAIKTVNENATDRERTNFLSEASVMKEFDTYHVVRLLGVCSRGQPALVVMELMKKGDLKSYLRAHRPEERDEAMMTYLNRIGVTGNVQPPTYGRIYQMAIEIADGMAYLAAKKFVHRDLAARNCMVADDLTVKIGDFGMTRDIYETDYYRKGTKGLLPVRWMPPESLRDGVYSSASDVFSFGVVLWEMATLAAQPYQGLSNEQVLRYVIDGGVMERPENCPDFLHKLMQRCWHHRSSARPSFLDIIAYLEPQCPNSQFKEVSFYHSEAGLQHREKERKERNQLDAFAAVPLDQDLQDREQQEDATTPLRMGDYQQNSSLDQPPESPIAMVDDQGSHLPFSLPSGFIASSTPDGQTVMATAFQNIPAAQGDISATYVVPDADALDGDRGYEIYDPSPKCAELPTSRSGSTGGGKLSGEQHLLPRKGRQPTIMSSSMPDDVIGGSSLQPSTASAGSSNASSHTGRPSLKKTVADSVRNKANFINRHLFNHKRTGSNASHKSNASNAPSTSSNTNLTSHPVAMGNLGTIESGGSGSAGSYTGTPRFYTPSATPGGGSGMAISDNPNYRLLDESIASEQATILTTSSPNPNYEMMHPPTSLVSTNPNYMPMNETPVQMAGVTISHNPNYQPMQAPLNARQSQSSSDEDNEQEEDDEDEDDDVDDEHVEHIKMERMPLSRPRQRALPSKTQPPRSRSVSQTRKSPTNPNSGIGATGAGNRSNLLKENWLRPASTPRPPPPNGFIGREA | –
